Experimental data published in the supplement of paper PMC10849652.
The list shows a part of the results.

Sequences of proteins named here, by UniProt entry; tags and fusion partners are left off. A change or cut given only in a name is not applied to a line headed by its entry.
UniProt Q9NXF7, whole entry, looked up: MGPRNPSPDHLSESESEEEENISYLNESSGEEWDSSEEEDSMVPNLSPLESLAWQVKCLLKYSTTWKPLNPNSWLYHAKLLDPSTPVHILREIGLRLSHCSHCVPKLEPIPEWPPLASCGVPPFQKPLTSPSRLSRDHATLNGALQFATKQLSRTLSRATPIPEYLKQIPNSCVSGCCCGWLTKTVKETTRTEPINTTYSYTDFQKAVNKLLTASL
UniProt P14868: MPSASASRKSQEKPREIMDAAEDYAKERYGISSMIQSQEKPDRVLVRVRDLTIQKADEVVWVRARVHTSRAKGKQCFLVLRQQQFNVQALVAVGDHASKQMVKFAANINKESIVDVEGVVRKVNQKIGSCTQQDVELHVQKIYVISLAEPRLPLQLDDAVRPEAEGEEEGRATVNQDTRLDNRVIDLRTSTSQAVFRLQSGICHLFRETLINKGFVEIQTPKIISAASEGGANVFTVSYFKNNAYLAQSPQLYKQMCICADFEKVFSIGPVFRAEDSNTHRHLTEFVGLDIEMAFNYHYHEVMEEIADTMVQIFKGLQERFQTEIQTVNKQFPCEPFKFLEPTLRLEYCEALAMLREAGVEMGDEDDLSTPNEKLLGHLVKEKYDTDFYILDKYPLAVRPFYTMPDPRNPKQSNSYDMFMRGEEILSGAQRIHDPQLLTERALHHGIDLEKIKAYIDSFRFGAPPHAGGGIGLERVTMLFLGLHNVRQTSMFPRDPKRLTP
UniProt Q9UBR2: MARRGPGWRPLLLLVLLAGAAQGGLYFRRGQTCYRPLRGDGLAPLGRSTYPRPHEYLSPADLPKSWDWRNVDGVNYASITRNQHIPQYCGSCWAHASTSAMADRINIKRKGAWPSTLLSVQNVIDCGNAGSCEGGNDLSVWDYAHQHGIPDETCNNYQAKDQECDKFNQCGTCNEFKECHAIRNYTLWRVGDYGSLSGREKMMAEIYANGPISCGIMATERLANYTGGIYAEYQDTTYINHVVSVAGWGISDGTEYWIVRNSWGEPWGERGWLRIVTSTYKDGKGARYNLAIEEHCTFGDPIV
UniProt P98082: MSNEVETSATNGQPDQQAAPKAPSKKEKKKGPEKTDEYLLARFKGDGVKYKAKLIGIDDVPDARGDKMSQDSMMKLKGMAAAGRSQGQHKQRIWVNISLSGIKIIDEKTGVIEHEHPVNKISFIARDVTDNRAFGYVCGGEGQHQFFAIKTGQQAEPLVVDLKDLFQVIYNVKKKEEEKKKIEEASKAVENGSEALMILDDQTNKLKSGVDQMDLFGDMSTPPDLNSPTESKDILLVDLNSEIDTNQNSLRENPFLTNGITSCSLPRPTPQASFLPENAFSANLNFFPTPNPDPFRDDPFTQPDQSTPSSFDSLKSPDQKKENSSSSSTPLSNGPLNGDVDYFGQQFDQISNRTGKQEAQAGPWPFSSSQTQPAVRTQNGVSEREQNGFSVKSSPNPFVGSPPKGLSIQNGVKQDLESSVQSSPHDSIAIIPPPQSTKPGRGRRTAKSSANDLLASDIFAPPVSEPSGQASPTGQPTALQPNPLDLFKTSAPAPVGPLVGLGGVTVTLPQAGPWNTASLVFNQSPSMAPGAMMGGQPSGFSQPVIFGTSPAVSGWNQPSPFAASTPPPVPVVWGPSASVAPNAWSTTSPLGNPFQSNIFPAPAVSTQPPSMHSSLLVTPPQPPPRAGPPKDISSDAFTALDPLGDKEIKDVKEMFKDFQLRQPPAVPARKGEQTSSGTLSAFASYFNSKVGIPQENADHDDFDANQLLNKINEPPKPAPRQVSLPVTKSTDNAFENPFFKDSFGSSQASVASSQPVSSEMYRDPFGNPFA
UniProt P50461: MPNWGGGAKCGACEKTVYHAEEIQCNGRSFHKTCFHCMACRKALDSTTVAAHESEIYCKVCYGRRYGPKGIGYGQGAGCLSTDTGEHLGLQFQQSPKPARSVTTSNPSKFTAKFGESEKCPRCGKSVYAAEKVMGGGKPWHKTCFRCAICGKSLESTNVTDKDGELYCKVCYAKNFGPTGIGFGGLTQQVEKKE
UniProt Q5JQC4: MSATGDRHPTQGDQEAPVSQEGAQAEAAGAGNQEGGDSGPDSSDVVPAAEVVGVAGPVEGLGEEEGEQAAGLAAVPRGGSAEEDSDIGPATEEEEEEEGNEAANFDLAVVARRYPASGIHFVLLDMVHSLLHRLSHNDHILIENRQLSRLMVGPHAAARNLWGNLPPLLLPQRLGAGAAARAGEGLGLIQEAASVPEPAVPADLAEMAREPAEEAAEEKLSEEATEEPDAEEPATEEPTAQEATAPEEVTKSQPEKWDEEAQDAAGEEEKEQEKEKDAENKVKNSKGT
UniProt Q8N465: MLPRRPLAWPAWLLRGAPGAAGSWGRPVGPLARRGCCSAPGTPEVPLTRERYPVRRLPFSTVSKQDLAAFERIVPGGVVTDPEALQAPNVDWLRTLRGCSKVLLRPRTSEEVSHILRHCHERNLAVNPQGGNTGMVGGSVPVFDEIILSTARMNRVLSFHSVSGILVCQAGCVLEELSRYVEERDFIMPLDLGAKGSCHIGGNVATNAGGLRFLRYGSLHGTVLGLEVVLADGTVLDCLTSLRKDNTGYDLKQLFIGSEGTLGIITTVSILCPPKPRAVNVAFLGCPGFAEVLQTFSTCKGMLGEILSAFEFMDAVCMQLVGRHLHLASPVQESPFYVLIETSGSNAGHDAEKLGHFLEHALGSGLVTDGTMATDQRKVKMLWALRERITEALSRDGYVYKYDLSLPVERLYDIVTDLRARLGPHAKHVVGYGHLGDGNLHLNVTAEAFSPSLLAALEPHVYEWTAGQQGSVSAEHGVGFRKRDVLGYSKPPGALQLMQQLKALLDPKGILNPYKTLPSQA
UniProt Q9BQA9: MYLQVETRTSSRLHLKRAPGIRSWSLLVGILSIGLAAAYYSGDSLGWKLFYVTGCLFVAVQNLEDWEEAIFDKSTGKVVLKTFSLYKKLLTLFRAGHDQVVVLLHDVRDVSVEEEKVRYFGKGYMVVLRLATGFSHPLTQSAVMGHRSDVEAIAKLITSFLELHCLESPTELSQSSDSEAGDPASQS

Legend:
Test in all cases: log2 fold change, soluble protein after heating vs DMSO (PISA); higher = thermal stabilisation; K562 cells, 10 uM, 30 min; active = over 0.2 and 3.5 SD of the protein, either way, in both replicates (recomputed)
[1] = compound: C1=CC=C(C=C1)[C@H](COC2=CC3=C(C=C2)NC(=O)N3)NC(=O)C4=CC=CN(C4=O)CC5=CC(=C(C=C5)F)F
Outline: (§1)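 K562 cells at 2×10^6 cells/mL were exposed to 10 μM compound for 30 min, then aliquots were heated for 3 min across 48°C-58°C, pooled, and extracted in PBS containing 0.5% NP-40 at 4°C. The supernatant after 21,000xg for 90 min was taken as soluble protein and measured by TMTpro 16plex LC-MS/MS with channel sums equalised. Thermal stability is reported relative to control samples, with values from duplicates. Fold changes are given on a log2 scale.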

[2] = compound: CC1=C(SC2=C1C(=N[C@H](C3=NN=C(N32)C)CC(=O)N)C4=CC=C(C=C4)Cl)C
Outline: as §1

[3] = compound: CC1=C2C(=CC=C1)N=C(N(C2=O)C3=CC=CC=C3C)CN4C=NC5=C(N=CN=C54)N
Outline: as §1

[4] = compound: Cc1sc2c(c1C)C(c1ccc(Cl)cc1)=N[C@@H](CC(=O)OC(C)(C)C)c1nnc(C)n1-2
Outline: as §1

[5] = compound: c1ccc([C@@H]2C[C@H]2NC2CCNCC2)cc1
Outline: as §1

Measured: log2 fold change

DCAF16 (UniProt Q9NXF7)
inactive: [1] 0.06 | [2] 0.056 | [3] 0.079 | [4] 0.032 | [5] -0.032

DARS (UniProt P14868)
inactive: [1] 0.026 | [2] -0.026 | [3] -0.016 | [4] 0.041 | [5] 0.012

CTSZ (UniProt Q9UBR2)
inactive: [1] -0.003 | [2] 0.009 | [3] 0.032 | [4] 0.039 | [5] -0.01

CYB5R2 (UniProt Q6BCY4)
inactive: [1] 0.053 | [2] -0.009 | [3] 0.048 | [4] 0.017 | [5] -0.011

DAB2 (UniProt P98082)
inactive: [1] -0.039 | [2] 0.051 | [3] 0.1 | [4] 0.121 | [5] 0.094

CSRP3 (UniProt P50461)
inactive: [1] -0.067 | [2] -0.038 | [3] -0.04 | [4] -0.01 | [5] 0.034

CT47A1 (UniProt Q5JQC4)
inactive: [1] -0.007 | [2] -0.07 | [3] -0.022 | [4] 0.123 | [5] 0.027

D2HGDH (UniProt Q8N465)
inactive: [1] 0.018 | [2] 0.181 | [3] 0.004 | [4] -0.024 | [5] -0.022

CYBC1 (UniProt Q9BQA9)
inactive: [1] -0.028 | [2] 0.038 | [3] 0.016 | [4] 0.004 | [5] 0.019
